The results in this text go back to the supplement of paper PMC4604168 (melanoma cell lines).

The list shows a part of the results. Repeats are few or missing, and single values can be far off.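 Imaging used 1,536-well plates; nuclei positive for cleaved PARP by antibody were divided by total DNA-stained nuclei to yield the apoptosis fraction. Doses for screening kept most cells viable, and cell lines differ markedly in resting and induced cleaved-PARP levels.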

The subject of this test is A2058. Briefly: cleaved PARP positive nuclei fraction relative to DMSO control; melanoma cells; higher = more apoptosis. The note with it: library dose: low library concentration; 72 h.
With `O=C(O)c1ccc2c(c1)nc(Nc1cccc(Cl)c1)c1ccncc12` + Nc1nc(F)nc2c1ncn2[C@@H]1O[C@H](CO)[C@@H](O)[C@@H]1O [fludarabine] (first compound 0.4 µM, partner dose 0.2 µM), the “cleaved PARP positive nuclei fraction” value came out at 215%.
To `O=C(O)c1ccc2c(c1)nc(Nc1cccc(Cl)c1)c1ccncc12` + Nc1cccc2c1CN(C1CCC(=O)NC1=O)C2=O [lenalidomide] (first compound 0.4 µM, partner dose 1 µM) belongs 97.6%; to `Nc1ncn([C@H]2C[C@H](O)[C@@H](CO)O2)c(=O)n1` [decitabine] + OCc1c[nH]c2ccccc12 [Indole-3-carbinol] (first compound 0.1 µM, partner dose 0.8 µM), 58.1%.
Regarding `CC(C)C[C@H](NC(=O)[C@H](Cc1ccccc1)NC(=O)c1cnccn1)B(O)O` [Bortezomib] + Cn1c(Nc2ccc(C(F)(F)F)cc2)nc2cc(Oc3ccnc(-c4ncc(C(F)(F)F)[nH]4)c3)ccc21 [CHIR265] (first compound 0.001 µM, partner dose 0.08 µM), the “cleaved PARP positive nuclei fraction” value was found to be 230%.
Turning to `Cn1c(=O)n(-c2ccc(C(C)(C)C#N)cc2)c2c3cc(-c4cnc5ccccc5c4)ccc3ncc21` + C[C@]1(c2nc3c(C(N)=O)cccc3[nH]2)CCCN1 [Veliparib] (first compound 0.004 µM, partner dose 1.4 µM), the “cleaved PARP positive nuclei fraction” value came out at 63.4%.
For `CS(=O)(=O)CCNCc1ccc(-c2ccc3ncnc(Nc4ccc(OCc5cccc(F)c5)c(Cl)c4)c3c2)o1` [lapatinib] + COCC[n+]1c2c(n(Cc3cnccn3)c1C)C(=O)c1ccccc1C2=O [YM155] (first compound 0.8 µM, partner dose 0.0004 µM), the “cleaved PARP positive nuclei fraction” value was found to be 177%.
To `CCCS(=O)(=O)Nc1ccc(F)c(C(=O)c2c[nH]c3ncc(Cl)cc23)c1F` + Nc1nc(F)nc2c1ncn2[C@@H]1O[C@H](CO)[C@@H](O)[C@@H]1O [fludarabine] (first compound 0.08 µM, partner dose 0.2 µM) belongs 21.8%; to `Cc1cc(Nc2cc(N3CCN(C)CC3)nc(/C=C/c3ccccc3)n2)n[nH]1` + CO[C@H]1C[C@@H]2CC[C@@H](C)[C@@](O)(O2)C(=O)C(=O)N2CCCC[C@H]2C(=O)O[C@H]([C@H](C)C[C@@H]2CC[C@@H](OCCO)[C@H](OC)C2)CC(=O)[C@H](C)/C=C(\C)[C@@H](O)[C@@H](OC)C(=O)[C@H](C)C[C@H](C)/C=C/C=C/C=C/1C [everolimus] (first compound 0.04 µM, partner dose 0.02 µM), 236%.
For `CCCS(=O)(=O)Nc1ccc(F)c(C(=O)c2c[nH]c3ncc(Cl)cc23)c1F` + Nc1ncn([C@H]2C[C@H](O)[C@@H](CO)O2)c(=O)n1 [decitabine] (first compound 0.08 µM, partner dose 0.1 µM), the “cleaved PARP positive nuclei fraction” value worked out at 120%.
